Assay results reported in patent publication US5585356A, “Matrix metalloproteinase peptides: role in diagnosis and therapy” (priority 1994, dated 1996).
Part of at least one peptide drawing is inferred or uncertain, most often the ends. Where no end group is shown, it is not given here.

Assays:
[1] = target: T1, type IV collagenase binding to type IV collagen (Homo sapiens, UniProt P08253); assay: binding of labeled type IV collagenase to type IV collagen, peptide competition; settings: FIG. 6
T1 construct: Type IV procollagenase was purified directly from human A2058 melanoma cell concentrated conditioned media; endogenous in cells; host or cells: human A2058 melanoma cells; serum-free conditioned medium, used crude or purified on gelatin-Sepharose
T1 sequence (P08253 30-660 limits assumed): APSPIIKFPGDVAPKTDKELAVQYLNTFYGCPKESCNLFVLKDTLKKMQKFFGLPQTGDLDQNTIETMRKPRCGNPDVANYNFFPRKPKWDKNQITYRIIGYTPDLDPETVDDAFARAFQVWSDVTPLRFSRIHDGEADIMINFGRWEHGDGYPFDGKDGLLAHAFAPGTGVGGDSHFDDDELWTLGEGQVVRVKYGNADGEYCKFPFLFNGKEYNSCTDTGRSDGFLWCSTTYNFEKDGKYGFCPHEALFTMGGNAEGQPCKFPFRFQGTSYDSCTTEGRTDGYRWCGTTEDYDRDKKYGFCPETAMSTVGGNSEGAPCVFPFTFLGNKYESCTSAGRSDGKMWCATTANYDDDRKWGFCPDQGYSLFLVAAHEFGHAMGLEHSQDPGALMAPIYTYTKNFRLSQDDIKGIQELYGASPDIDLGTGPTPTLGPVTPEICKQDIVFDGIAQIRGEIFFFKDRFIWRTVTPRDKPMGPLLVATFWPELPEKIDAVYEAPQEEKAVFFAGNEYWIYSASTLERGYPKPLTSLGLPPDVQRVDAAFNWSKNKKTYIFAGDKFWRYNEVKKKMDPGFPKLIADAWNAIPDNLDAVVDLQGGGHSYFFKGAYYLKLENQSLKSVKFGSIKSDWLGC

type IV collagenase [2] = target: T2, type IV collagenase (Homo sapiens, UniProt P08253); assay: gelatin zymogram inhibition of type IV collagenase; type: biochemical
T2 construct: Type IV procollagenase was purified directly from human A2058 melanoma cell concentrated conditioned media; endogenous in cells; host or cells: human A2058 melanoma cells; serum-free conditioned medium, used crude or purified on gelatin-Sepharose
T2 sequence (P08253 30-660 limits assumed): T1 sequence (P08253 30-660 limits assumed)

type IV collagenase [3] = target: T3, type IV collagenase (Homo sapiens, UniProt P08253); assay: soluble type IV collagenase assay (3H-type IV collagen degradation); type: biochemical
T3 construct: endogenous in cells; host or cells: human A2058 melanoma cells
T3 sequence (P08253 110-660): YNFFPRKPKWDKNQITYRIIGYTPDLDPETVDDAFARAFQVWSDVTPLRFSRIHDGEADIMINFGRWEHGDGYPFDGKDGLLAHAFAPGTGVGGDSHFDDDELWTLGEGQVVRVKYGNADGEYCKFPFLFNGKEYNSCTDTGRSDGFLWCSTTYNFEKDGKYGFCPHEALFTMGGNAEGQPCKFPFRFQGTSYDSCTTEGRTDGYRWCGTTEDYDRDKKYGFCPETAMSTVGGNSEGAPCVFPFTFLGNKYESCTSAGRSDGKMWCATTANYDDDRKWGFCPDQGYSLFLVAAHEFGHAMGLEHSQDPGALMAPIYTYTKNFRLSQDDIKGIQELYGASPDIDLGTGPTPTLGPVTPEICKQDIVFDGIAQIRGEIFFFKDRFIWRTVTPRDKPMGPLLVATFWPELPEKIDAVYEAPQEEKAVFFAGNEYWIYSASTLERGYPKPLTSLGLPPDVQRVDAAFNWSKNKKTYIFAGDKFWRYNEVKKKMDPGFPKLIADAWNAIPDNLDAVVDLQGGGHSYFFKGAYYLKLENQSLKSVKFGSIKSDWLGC
Protocol: FIG. 11 illustrates the dose dependent inhibition of purified activated type IV collagenase cleavage of pepsinized type IV collagen by the designated synthetic peptides. Peptide TMRKPRCGNPDVAN at a concentration of 0.1 mM inhibits 80% of the enzyme activity.
The procedure for the collagenase assay of this example utilized the following preparation.
1. Place enzyme sample activator (usually 1 mM pAPMA) and test solution in 1.5 ml Eppendorf tube. Combined volume must equal 60 μl. Add 1× collagenase buffer, if necessary. If necessary, preincubate.
2. Prepare type Iv collagen substrate by diluting stock ^3 H-type IV collagen (NEN #NET-931 lot #2511-018) 1:120 with 1× collagenase buffer. Heat to 55° C. for 10 minutes and cool on ice.
3. Add 5 μl of diluted mH-type IV collagen solution to each assay tube. Vortex to mix and incubate at 28° C. for 4 hours.
4. At the end of the incubation period, add 2 μl of carrier BSA solution and 7 μl of TCATAP solution. Vortex mix and allow to stand on ice for at least 10 minutes.
5. Pellet the precipitate by centrifuging in the microfuge for 10 minutes with the speed set at 6. Orient the tubes when placing them in the microfuge in order that the position of the pellet will be known.
6. Immediately after centrifugation, aspirate 55 μl of the supernatant and place in a scintillation vial. Add 5 ml of scintillation cocktail, shake well and count. […]

Substance: AAHEEICTTNEGVM [AAHEEICTTNEGVM, Ala--Ala--His--Glu--Glu--Ile--Cys--Thr--Thr--Asn--Glu--Gly--Val--Met]
- competition for binding of type IV collagenase to type IV collagen [1]: effective

Substance: RKPRC [Peptide 88, RKPRC]
- inhibitory activity (in words) (type IV collagenase [2]; peptides of the procollagenase activation locus, FIG. 12 and Table 2): retained inhibitor activity

Substance: TMRKPRCGNPDVAN [Peptide 74, TMRKPRCGNPDVAN]
- enzyme activity at higher concentrations (type IV collagenase [3]; peptide concentrations higher than 0.1 mM (FIG. 11)): abolish all enzyme activity

Substance: VAAHEFGHAMGLEHSQ [Val--Ala--Ala--His--Glu--Phe--Gly--His--Ala--Met--Gly--Leu--Glu--His--Ser--Gln]
- gelatinase activity (type IV collagenase [2]; gelatin zymograms, FIG. 5): abolished
- collagenase type IV activity (type IV collagenase [3]): abolished
